# According to the supplement of paper PMC8728848:
# The other results are listed elsewhere or left out.
# Key:
# Assay in all cases: glycan array binding signal (z-score within array); higher = stronger binding
# Conditions in all cases: glycan notation: IUPAC condensed, linker removed
# [1] = target: Gal(b1-4)GlcNAc(b1-2)[Gal(b1-4)GlcNAc(b1-6)]Man(a1-6)[GlcNAc(b1-4)][Gal(b1-4)GlcNAc(b1-2)Man(a1-3)]Man(b1-4)GlcNAc(b1-4)GlcNAc
# Method in brief: (§1)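 Glycan array binding is given as a within-array Z-score, which can be read as non-binding when negative. The arrays, 3228 of them, came from the Consortium for Functional Glycomics database and were retained only where the protein sequence was available. Z-scores were averaged across arrays of the same protein sequence at different concentrations or buffers and across linkers.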
# [2] = target: Gal(b1-4)GlcNAc(b1-2)[Gal(b1-4)GlcNAc(b1-6)]Man(a1-6)[GlcNAc(b1-4)][Gal(b1-4)GlcNAc(b1-2)[Gal(b1-4)GlcNAc(b1-4)]Man(a1-3)]Man(b1-4)GlcNAc(b1-4)[Fuc(a1-6)]GlcNAc
# Method in brief: as §1
# [3] = target: Gal(b1-4)GlcNAc(b1-3)Gal(b1-3)GalNAc
# Method in brief: as §1
# [4] = target: Gal(b1-4)GlcNAc(b1-3)Gal(b1-3)GlcNAc
# Method in brief: as §1
# [5] = target: Gal(b1-4)GlcNAc(b1-3)Gal(b1-4)Glc
# Method in brief: as §1
# [6] = target: Gal(b1-4)GlcNAc(b1-3)Gal(b1-4)GlcNAc
# Method in brief: as §1
# [7] = target: Gal(b1-4)GlcNAc(b1-3)Gal(b1-4)GlcNAc(b1-2)Man(a1-3)[Gal(b1-4)GlcNAc(b1-3)Gal(b1-4)GlcNAc(b1-2)Man(a1-6)]Man(b1-4)GlcNAc(b1-4)GlcNAc
# Method in brief: as §1
# [8] = target: Gal(b1-4)GlcNAc(b1-3)Gal(b1-4)GlcNAc(b1-2)Man(a1-3)[Gal(b1-4)GlcNAc(b1-3)Gal(b1-4)GlcNAc(b1-2)Man(a1-6)]Man(b1-4)GlcNAc(b1-4)[Fuc(a1-6)]GlcNAc
# Method in brief: as §1
# [9] = target: Gal(b1-4)GlcNAc(b1-3)Gal(b1-4)GlcNAc(b1-2)[Gal(b1-4)GlcNAc(b1-3)Gal(b1-4)GlcNAc(b1-6)]Man(a1-6)[Gal(b1-4)GlcNAc(b1-3)Gal(b1-4)GlcNAc(b1-2)Man(a1-3)]Man(b1-4)GlcNAc(b1-4)GlcNAc
# Method in brief: as §1
# [10] = target: Gal(b1-4)GlcNAc(b1-3)Gal(b1-4)GlcNAc(b1-2)[Gal(b1-4)GlcNAc(b1-3)Gal(b1-4)GlcNAc(b1-6)]Man(a1-6)[Gal(b1-4)GlcNAc(b1-3)Gal(b1-4)GlcNAc(b1-2)Man(a1-3)]Man(b1-4)GlcNAc(b1-4)[Fuc(a1-6)]GlcNAc
# Method in brief: as §1
# [11] = target: Gal(b1-4)GlcNAc(b1-3)Gal(b1-4)GlcNAc(b1-3)Gal(b1-4)GlcNAc
# Method in brief: as §1
# [12] = target: Gal(b1-4)GlcNAc(b1-3)Gal(b1-4)GlcNAc(b1-3)Gal(b1-4)GlcNAc(b1-2)Man(a1-3)[Gal(b1-4)GlcNAc(b1-3)Gal(b1-4)GlcNAc(b1-3)Gal(b1-4)GlcNAc(b1-2)Man(a1-6)]Man(b1-4)GlcNAc(b1-4)GlcNAc
# Method in brief: as §1
# [13] = target: Gal(b1-4)GlcNAc(b1-3)Gal(b1-4)GlcNAc(b1-3)Gal(b1-4)GlcNAc(b1-2)Man(a1-3)[Gal(b1-4)GlcNAc(b1-3)Gal(b1-4)GlcNAc(b1-3)Gal(b1-4)GlcNAc(b1-2)Man(a1-6)]Man(b1-4)GlcNAc(b1-4)[Fuc(a1-6)]GlcNAc
# Method in brief: as §1
# [14] = target: Gal(b1-4)GlcNAc(b1-3)Gal(b1-4)GlcNAc(b1-3)Gal(b1-4)GlcNAc(b1-2)[Gal(b1-4)GlcNAc(b1-3)Gal(b1-4)GlcNAc(b1-3)Gal(b1-4)GlcNAc(b1-6)]Man(a1-6)[Gal(b1-4)GlcNAc(b1-3)Gal(b1-4)GlcNAc(b1-3)Gal(b1-4)GlcNAc(b1-2)Man(a1-3)]Man(b1-4)GlcNAc(b1-4)[Fuc(a1-6)]GlcNAc
# Method in brief: as §1
# [15] = target: Gal(b1-4)GlcNAc(b1-3)Gal(b1-4)GlcNAc(b1-3)Gal(b1-4)GlcNAc(b1-3)Gal(b1-4)GlcNAc(b1-2)Man(a1-3)[Gal(b1-4)GlcNAc(b1-3)Gal(b1-4)GlcNAc(b1-3)Gal(b1-4)GlcNAc(b1-3)Gal(b1-4)GlcNAc(b1-2)Man(a1-6)]Man(b1-4)GlcNAc(b1-4)GlcNAc
# Method in brief: as §1
# [16] = target: Gal(b1-4)GlcNAc(b1-3)Gal(b1-4)GlcNAc(b1-3)Gal(b1-4)GlcNAc(b1-3)Gal(b1-4)GlcNAc(b1-2)Man(a1-3)[Gal(b1-4)GlcNAc(b1-3)Gal(b1-4)GlcNAc(b1-3)Gal(b1-4)GlcNAc(b1-3)Gal(b1-4)GlcNAc(b1-2)Man(a1-6)]Man(b1-4)GlcNAc(b1-4)[Fuc(a1-6)]GlcNAc
# Method in brief: as §1
# [17] = target: Gal(b1-4)GlcNAc(b1-3)Gal(b1-4)GlcNAc(b1-3)Gal(b1-4)GlcNAc(b1-3)Gal(b1-4)GlcNAc(b1-2)[Gal(b1-4)GlcNAc(b1-3)Gal(b1-4)GlcNAc(b1-3)Gal(b1-4)GlcNAc(b1-3)Gal(b1-4)GlcNAc(b1-6)]Man(a1-6)[Gal(b1-4)GlcNAc(b1-3)Gal(b1-4)GlcNAc(b1-3)Gal(b1-4)GlcNAc(b1-3)Gal(b1-4)GlcNAc(b1-2)Man(a1-3)]Man(b1-4)GlcNAc(b1-4)[Fuc(a1-6)]GlcNAc
# Method in brief: as §1
# [18] = target: Gal(b1-4)GlcNAc(b1-3)Gal(b1-4)GlcNAc(b1-3)Gal(b1-4)GlcNAc(b1-3)Gal(b1-4)GlcNAc(b1-3)Gal(b1-4)GlcNAc(b1-2)Man(a1-3)[Gal(b1-4)GlcNAc(b1-3)Gal(b1-4)GlcNAc(b1-3)Gal(b1-4)GlcNAc(b1-3)Gal(b1-4)GlcNAc(b1-3)Gal(b1-4)GlcNAc(b1-2)Man(a1-6)]Man(b1-4)GlcNAc(b1-4)GlcNAc
# Method in brief: as §1
# [19] = target: Gal(b1-4)GlcNAc(b1-3)Gal(b1-4)GlcNAc(b1-3)Gal(b1-4)GlcNAc(b1-3)Gal(b1-4)GlcNAc(b1-3)Gal(b1-4)GlcNAc(b1-2)Man(a1-3)[Gal(b1-4)GlcNAc(b1-3)Gal(b1-4)GlcNAc(b1-3)Gal(b1-4)GlcNAc(b1-3)Gal(b1-4)GlcNAc(b1-3)Gal(b1-4)GlcNAc(b1-2)Man(a1-6)]Man(b1-4)GlcNAc(b1-4)[Fuc(a1-6)]GlcNAc
# Method in brief: as §1
# [20] = target: Gal(b1-4)GlcNAc(b1-3)Gal(b1-4)GlcNAc(b1-3)Gal(b1-4)GlcNAc(b1-3)Gal(b1-4)GlcNAc(b1-3)Gal(b1-4)GlcNAc(b1-2)[Gal(b1-4)GlcNAc(b1-3)Gal(b1-4)GlcNAc(b1-3)Gal(b1-4)GlcNAc(b1-3)Gal(b1-4)GlcNAc(b1-3)Gal(b1-4)GlcNAc(b1-6)]Man(a1-6)[Gal(b1-4)GlcNAc(b1-3)Gal(b1-4)GlcNAc(b1-3)Gal(b1-4)GlcNAc(b1-3)Gal(b1-4)GlcNAc(b1-3)Gal(b1-4)GlcNAc(b1-2)Man(a1-3)]Man(b1-4)GlcNAc(b1-4)[Fuc(a1-6)]GlcNAc
# Method in brief: as §1
# [21] = target: Gal(b1-4)GlcNAc(b1-3)Gal(b1-4)GlcNAc(b1-3)Gal(b1-4)GlcNAc(b1-3)Gal(b1-4)GlcNAc(b1-3)Gal(b1-4)GlcNAc(b1-3)Gal(b1-4)GlcNAc(b1-2)Man(a1-3)[Gal(b1-4)GlcNAc(b1-3)Gal(b1-4)GlcNAc(b1-3)Gal(b1-4)GlcNAc(b1-3)Gal(b1-4)GlcNAc(b1-3)Gal(b1-4)GlcNAc(b1-3)Gal(b1-4)GlcNAc(b1-2)Man(a1-6)]Man(b1-4)GlcNAc(b1-4)GlcNAc
# Method in brief: as §1
# [22] = target: Gal(b1-4)GlcNAc(b1-3)Gal(b1-4)GlcNAc(b1-3)GalNAc
# Method in brief: as §1
# [23] = target: Gal(b1-4)GlcNAc(b1-3)Gal(b1-4)GlcNAc(b1-3)[Gal(b1-4)GlcNAc(b1-3)Gal(b1-4)GlcNAc(b1-6)]GalNAc
# Method in brief: as §1
binder,measurement,setting,value
Mincle (Bos taurus) (protein) MNSSTSPASQTERRCFSFQLFSWAIAGTSILLLSACFITRCVVTYSIFQLCDEKKFQPPGDSMELSCYNDGSGSVKNCCPLKWFHFQSSCYLFSPDTMSWRASLKNCSSMGAHLVVINTQEEQEFLYYTKPRKKEFYIGLTDQVTEGQWQWVDGTPFTKSLSFWDAGEPNNLVIVEDCATIRDSSNPRQNWNDVPCFFNMFRVCEMPERKI,glycan array binding signal (z-score),[1],0.236
same,glycan array binding signal (z-score),[2],0.41
same,glycan array binding signal (z-score),[3],-0.407
same,glycan array binding signal (z-score),[4],-0.097
same,glycan array binding signal (z-score),[5],-0.083
same,glycan array binding signal (z-score),[6],-0.628
same,glycan array binding signal (z-score),[7],1.83
same,glycan array binding signal (z-score),[8],1.11
same,glycan array binding signal (z-score),[9],1.25
same,glycan array binding signal (z-score),[10],1.12
same,glycan array binding signal (z-score),[11],-0.424
same,glycan array binding signal (z-score),[12],1.65
same,glycan array binding signal (z-score),[13],0.543
same,glycan array binding signal (z-score),[14],0.941
same,glycan array binding signal (z-score),[15],0.361
same,glycan array binding signal (z-score),[16],0.986
same,glycan array binding signal (z-score),[17],0.441
same,glycan array binding signal (z-score),[18],-0.325
same,glycan array binding signal (z-score),[19],-0.151
same,glycan array binding signal (z-score),[20],0.237
same,glycan array binding signal (z-score),[21],0.667
same,glycan array binding signal (z-score),[22],2.55
same,glycan array binding signal (z-score),[23],2.3

# Part of the list above, tab-delimited:
binder	measurement	setting	value
Mincle (Bos taurus) (protein) MNSSTSPASQTERRCFSFQLFSWAIAGTSILLLSACFITRCVVTYSIFQLCDEKKFQPPGDSMELSCYNDGSGSVKNCCPLKWFHFQSSCYLFSPDTMSWRASLKNCSSMGAHLVVINTQEEQEFLYYTKPRKKEFYIGLTDQVTEGQWQWVDGTPFTKSLSFWDAGEPNNLVIVEDCATIRDSSNPRQNWNDVPCFFNMFRVCEMPERKI	glycan array binding signal (z-score)	[12]	1.65
same	glycan array binding signal (z-score)	[13]	0.543
